From PMC11593002 (Current Issues in Molecular Biology, 2024)
Entries after “also recorded” stand apart in the source; their conditions may differ.

How the values were obtained:
Type in all cases: cell-based
MCF-7 = test: MTT-dye reduction antiproliferative assay, MCF-7; settings: Iscador Qu both concentrations (10 and 20 µg/mL) or not specified
Description: (§1) Breast cell lines (MCF-10A, MCF-7, and MDA-MB-231) were purchased from the American Type Culture Collection—ATCC (Manassas, VA, USA). MCF-7 and MDA-MB-231 were cultivated in Dulbecco’s modified Eagle’s medium (DMEM), supplemented with 10% fetal bovine serum (FBS), 1% sodium pyruvate, and 1% MEM non-essential amino acids (NEAA) without antibiotics. The non-tumorigenic cell line (MCF-10A) was cultivated in DMEM medium (Sigma-Aldrich, St. Louis, MO, USA) and supplemented with 10% FBS, 1% sodium pyruvate, 1% non-essential amino acids (NEAA), 20 ng/mL human epidermal growth factor (hEGF), 10 μg/mL insulin, and 0.5 μg/mL hydrocortisone without antibiotics. All cell lines were maintained in a humidified atmosphere with 5% CO2 at 37 °C.
(§2) The antiproliferative activity was tested via using the standard MTT-dye reduction assay described by Mosmann. The method is based on the metabolism of the tetrazolium salt MTT to insoluble formazan. The formazan absorption was registered using a microplate reader at λ = 540 nm. The measured absorption is an indicator of cell viability and metabolic activity. Antiproliferative activities are expressed as IC50 values (concentrations required for 50% inhibition of cell growth) and were calculated using non-linear regression analysis (GraphPad Prism 8.0.2 Software, San Diego, CA, USA).

MCF-10A = test: MTT-dye reduction antiproliferative assay, MCF-10A; settings: Iscador Qu both concentrations (50 or 100 µg/mL) or not specified
Description: as §1, §2

MDA-MB-231 = test: MTT-dye reduction antiproliferative assay, MDA-MB-231; settings: Iscador Qu both concentrations (40 and 80 µg/mL) or not specified
Description: as §1, §2

With `CC/C(=C(\c1ccccc1)c1ccc(OCCN(C)C)cc1)c1ccccc1` [Tamoxifen] the “effect of combined treatment with Iscador Qu on IC50 / antiproliferative effect” value (“effect … on IC50 / antiproliferative effect” below) (MCF-7) was “antagonistic effect; also recorded: negatively affected”, the “effect … on IC50 / antiproliferative effect” value (MCF-10A) was “decrease in IC50 dose” and the “effect … on IC50 / antiproliferative effect” value (MDA-MB-231) was “negatively affected; also recorded: No significant alteration in IC50”.
